From article PMC4585563
Results are given in words; binding and its absence hold for the method and conditions named. Some results given as binding are weak or reduced against the parent protein; the word gives no strength.

B1: CTNNBL1 (residues 77-563), wild type (domain or fragment, UniProt Q8WYA6 77-563)
chain: LDESSVKKMILTFEKRSYKNQELRIKFPDNPEKFMESELDLNDIIQEMHVVATMPDLYHLLVELNAVQSLLGLLGHDNTDVSIAVVDLLQELTDIDTLHESEEGAEVLIDALVDGQVVALLVQNLERLDESVKEEADGVHNTLAIVENMAEFRPEMCTEGAQQGLLQWLLKRLKAKMPFDANKLYCSEVLAILLQDNDENRELLGELDGIDVLLQQLSVFKRHNPSTAEEQEMMENLFDSLCSCLMLSSNRERFLKGEGLQLMNLMLREKKISRSSALKVLDHAMIGPEGTDNCHKFVDILGLRTIFPLFMKSPRKIKKVGTTEKEHEEHVCSILASLLRNLRGQQRTRLLNKFTENDSEKVDRLMELHFKYLGAMQVADKKIEGEKHDMVRRGEIIDNDTEEEFYLRRLDAGLFVLQHICYIMAEICNANVPQIRQRVHQILNMRGSSIKIVRHIIKEYAENIGDGRSPEFRENEQKRILGLLENF
B2: CTNNBL1^L87R/I101R/G148R/Q192R/Q199R/Q238A/E278A/E282A (domain or fragment, UniProt Q8WYA6 77-563)
chain: LDESSVKKMIRTFEKRSYKNQELRRKFPDNPEKFMESELDLNDIIQEMHVVATMPDLYHLLVELNAVQSLLRLLGHDNTDVSIAVVDLLQELTDIDTLHESEEGAEVLIDALVDGRVVALLVRNLERLDESVKEEADGVHNTLAIVENMAEFRPEMCTEGAAQGLLQWLLKRLKAKMPFDANKLYCSEVLAILLQDNDENRALLGALDGIDVLLQQLSVFKRHNPSTAEEQEMMENLFDSLCSCLMLSSNRERFLKGEGLQLMNLMLREKKISRSSALKVLDHAMIGPEGTDNCHKFVDILGLRTIFPLFMKSPRKIKKVGTTEKEHEEHVCSILASLLRNLRGQQRTRLLNKFTENDSEKVDRLMELHFKYLGAMQVADKKIEGEKHDMVRRGEIIDNDTEEEFYLRRLDAGLFVLQHICYIMAEICNANVPQIRQRVHQILNMRGSSIKIVRHIIKEYAENIGDGRSPEFRENEQKRILGLLENF

How the values were obtained:
[1] = biological target: CTNNBL1 (residues 77-563), wild type (human) (UniProt Q8WYA6); experiment: SAXS; CTNNBL1/CDC5L complexes at 1.0-2.0 mg/ml, 40 mM Tris-HCl pH 8.0 without NaCl, 4 °C; ab initio models with P2 symmetry; both purified
[2] = biological target: CTNNBL1 (residues 77-563), wild type (human) (UniProt Q8WYA6); experiment: SEC; Superdex 200 10/300, 500 μl of 2 mg/ml protein, 0.5 ml/min, 40 mM Tris-HCl pH 8.0, 150 mM NaCl; molecular weight from calibration standards; both purified
[3] = biological target: CTNNBL1^L87R/I101R/G148R/Q192R/Q199R/Q238A/E278A/E282A (human) (UniProt Q8WYA6); experiment: SAXS; eight-point CTNNBL1 mutant alone, 100 mM NaCl by the methods (150 mM NaCl by the results), 4 °C; both purified
[4] = biological target: CTNNBL1^L87R/I101R/G148R/Q192R/Q199R/Q238A/E278A/E282A (human) (UniProt Q8WYA6); experiment: SEC; Superdex 200 10/300, 500 μl of 2 mg/ml protein, 0.5 ml/min, 40 mM Tris-HCl pH 8.0, 150 mM NaCl; molecular weight from calibration standards; both purified

Binder	binding [1]	binding [2]	binding [3]	binding [4]
B1	binds	binds		
B2			no binding	no binding (tested: 2 mg/ml injected)
